These results are taken from PubChem BioAssay AID272 (DTP/NCI, 2004).

The list is a part of this screen's results and no random one: it is rich in T/C values a quarter to a half above the control, in often repeated tests (any T/C) and in doses without a T/C. Further doses and runs are listed elsewhere. T/C gives the treated animals as a percentage of the vehicle group. Some doses have a count of surviving animals in place of a T/C: the source holds a T/C of zero for them, seemingly a mark for toxic or unscored doses. Some doses without a T/C left all or most animals alive at the check, yet need not have been tolerated: survival well below the control is almost never listed, so the zero probably covers shortened survival too. Counts of survivors are from the toxicity check (mostly the fifth day) where no day follows; animals may have died later. Schedule codes are those of the source, taken here to give the interval after Q, in days (D) or hours (H), and the number of doses after X. Some schedule codes hold Z or #, which are not explained here. Some entries were tested several times; the values are given in rising order. Where survival is the endpoint, this PubChem deposit counts one and a half times the control or more as active, and values a quarter to a half above the control carry no call in these data; other NCI protocols may use other cut-offs. Some T/C values carry the count of animals alive at the toxicity check (mostly the fifth day); without a count, all were alive then.

The assay relates to Lewis lung carcinoma i.m., BDF1 mice, T/C %. The assay is described as follows: NCI In Vivo Anticancer Drug Screen. Data for tumor model Lewis Lung Carcinoma (intramuscular) in B6D2F1 (BDF1) mice. In a few lines:
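Mice carrying transplantable tumours received test compound. Survival or tumour size was recorded and expressed as the treated-group value (T) divided by the vehicle-treated control-group value (C).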

Turning to `CO[C@@]12[C@H](COC(N)=O)C3=C(C(=O)C(C)=C(N)C3=O)N1C[C@@H]1N[C@@H]12`, the T/C by setting is: (T/C endpoint: median survival time, dose: 0.25 mg/kg/injection, schedule: Q01DX011 (ip), vehicle: water, higher T/C = longer survival) 125 and 133 % of control; (T/C endpoint: median survival time, dose: 1.0 mg/kg/injection, schedule: Q01DX005 (ip), vehicle: other, higher T/C = longer survival) 142 % of control. Besides, the survivor count runs as follows: (T/C endpoint: median survival time, dose: 1.0 mg/kg/injection, schedule: Q01DX009 (ip), vehicle: Klucel (hydroxypropylcellulose) (HPC), higher T/C = longer survival) 10 of 10; (T/C endpoint: median survival time, dose: 1.0 mg/kg/injection, schedule: Q01DX011 (ip), vehicle: saline, higher T/C = longer survival) 8 of 8; (T/C endpoint: median survival time, dose: 1.0 mg/kg/injection, schedule: Q01DX011 (ip), vehicle: water, higher T/C = longer survival) 10 of 10; (T/C endpoint: median survival time, dose: 2.0 mg/kg/injection, schedule: Q01DX005 (ip), vehicle: saline, higher T/C = longer survival) 4 of 8; (T/C endpoint: median survival time, dose: 2.0 mg/kg/injection, schedule: Q01DX009 (ip), vehicle: Klucel (hydroxypropylcellulose) (HPC), higher T/C = longer survival) 10 of 10; (T/C endpoint: median survival time, dose: 2.0 mg/kg/injection, schedule: Q01DX011 (ip), vehicle: saline, higher T/C = longer survival) 1 of 8. For the same molecule, the survivor count is 0 of 10 and 7 of 10 (T/C endpoint: median survival time, dose: 2.0 mg/kg/injection, schedule: Q01DX011 (ip), vehicle: water, higher T/C = longer survival); 0 of 8 (T/C endpoint: median survival time, dose: 4.0 mg/kg/injection, schedule: Q01DX005 (ip), vehicle: other, higher T/C = longer survival); 0 of 8 (T/C endpoint: median survival time, dose: 4.0 mg/kg/injection, schedule: Q01DX005 (ip), vehicle: saline, higher T/C = longer survival); 10 of 10 (T/C endpoint: median survival time, dose: 4.0 mg/kg/injection, schedule: Q01DX009 (ip), vehicle: Klucel (hydroxypropylcellulose) (HPC), higher T/C = longer survival); 0 of 8 (T/C endpoint: median survival time, dose: 4.0 mg/kg/injection, schedule: Q01DX011 (ip), vehicle: saline, higher T/C = longer survival); 0 of 10 and 2 of 10 (T/C endpoint: median survival time, dose: 4.0 mg/kg/injection, schedule: Q01DX011 (ip), vehicle: water, higher T/C = longer survival). The survivor count (T/C endpoint: median survival time, dose: 8.0 mg/kg/injection, schedule: Q01DX005 (ip), vehicle: other, higher T/C = longer survival) is 0 of 8; the survivor count (T/C endpoint: median survival time, dose: 8.0 mg/kg/injection, schedule: Q01DX005 (ip), vehicle: saline, higher T/C = longer survival) is 0 of 8; the survivor count (T/C endpoint: median tumor weight (est.), dose: 2.0 mg/kg/injection, schedule: Q01DX005 (ip), vehicle: saline, higher T/C = larger tumour) is recorded as 4 of 8.

Consider `COc1cccc2c1C(=O)c1c(O)c3c(c(O)c1C2=O)C[C@@](O)(C(=O)COC(=O)Cc1cccc2ccccc12)C[C@@H]3OC1CC(N)C(O)C(C)O1` (stereo partly specified), for which, where the note is “T/C endpoint: median survival time, dose: 2.0 mg/kg/injection, schedule: Q01DX011 (ip), vehicle: other, higher T/C = longer survival”, the T/C is 139 % of control [4 of 6 alive]. Further, under “T/C endpoint: median survival time, dose: 4.0 mg/kg/injection, schedule: Q01DX011 (ip), vehicle: other, higher T/C = longer survival”, the survivor count was 0 of 6.

For the molecule `CCN(CC)CCOC(=O)c1ccccc1N(c1ccccc1)c1ccccc1`, the survivor count (T/C endpoint: median survival time, dose: 125.0 mg/kg/injection, schedule: Q01DX011 (ip), vehicle: Klucel (hydroxypropylcellulose) (HPC), higher T/C = longer survival) is reported as 6 of 8.

As for `CCC[N+](CCC)=c1ccc2nc3c(C)cc(N(CC)CC)cc3sc-2c1`, the survivor count was 4 of 8 (T/C endpoint: mean tumor weight (est.), dose: 5.0 mg/kg/injection, schedule: Q01DX011 (ip), vehicle: saline, higher T/C = larger tumour); 4 of 8 (T/C endpoint: median survival time, dose: 5.0 mg/kg/injection, schedule: Q01DX011 (ip), vehicle: saline, higher T/C = longer survival); 0 of 8 (T/C endpoint: median survival time, dose: 10.0 mg/kg/injection, schedule: Q01DX011 (ip), vehicle: saline, higher T/C = longer survival); 0 of 8 (T/C endpoint: median survival time, dose: 20.0 mg/kg/injection, schedule: Q01DX011 (ip), vehicle: saline, higher T/C = longer survival); 0 of 8 (T/C endpoint: median survival time, dose: 40.0 mg/kg/injection, schedule: Q01DX011 (ip), vehicle: saline, higher T/C = longer survival); 0 of 8 (T/C endpoint: median survival time, dose: 80.0 mg/kg/injection, schedule: Q01DX011 (ip), vehicle: saline, higher T/C = longer survival).

On to `CCCCCCC(=O)O[C@H]1CC[C@H]2[C@@H]3CCC4=CC(=O)CC[C@]4(C)[C@H]3CC[C@]12C`, for which the survivor count (T/C endpoint: median survival time, dose: 10.0 mg/kg/injection, schedule: Q01DX009 (ip), vehicle: Klucel (hydroxypropylcellulose) (HPC), higher T/C = longer survival) is listed as 10 of 10.

Consider `CCOC(N)=O`, for which the survivor count (T/C endpoint: median survival time, dose: 50.0 mg/kg/injection, schedule: Q01DX011 (ip), vehicle: saline, higher T/C = longer survival) was 6 of 8.

Take `CC(=O)NNC(=O)c1ccccn1`: the survivor count is on record as 10 of 10 (T/C endpoint: median survival time, dose: 25.0 mg/kg/injection, schedule: Q01DX011 (ip), vehicle: water, higher T/C = longer survival); 5 of 10 (T/C endpoint: median survival time, dose: 25.0 mg/kg/injection, schedule: Q01DX012 (ip), vehicle: water, higher T/C = longer survival); 8 of 8 (T/C endpoint: median survival time, dose: 32.0 mg/kg/injection, schedule: Q01DX Z (ip), vehicle: other, higher T/C = longer survival); 8 of 10 (T/C endpoint: median survival time, dose: 50.0 mg/kg/injection, schedule: Q01DX011 (ip), vehicle: water, higher T/C = longer survival); 2 of 10 (T/C endpoint: median survival time, dose: 50.0 mg/kg/injection, schedule: Q01DX012 (ip), vehicle: water, higher T/C = longer survival); 8 of 8 (T/C endpoint: median survival time, dose: 64.0 mg/kg/injection, schedule: Q01DX Z (ip), vehicle: other, higher T/C = longer survival). In addition, the survivor count is, setting by setting: (T/C endpoint: median survival time, dose: 100.0 mg/kg/injection, schedule: Q01DX011 (ip), vehicle: water, higher T/C = longer survival) 10 of 10; (T/C endpoint: median survival time, dose: 100.0 mg/kg/injection, schedule: Q01DX012 (ip), vehicle: water, higher T/C = longer survival) 10 of 10; (T/C endpoint: median survival time, dose: 128.0 mg/kg/injection, schedule: Q01DX Z (ip), vehicle: other, higher T/C = longer survival) 4 of 8 and 7 of 8; (T/C endpoint: median survival time, dose: 200.0 mg/kg/injection, schedule: Q01DX011 (ip), vehicle: water, higher T/C = longer survival) 5 of 10; (T/C endpoint: median survival time, dose: 200.0 mg/kg/injection, schedule: Q01DX012 (ip), vehicle: water, higher T/C = longer survival) 1 of 10; (T/C endpoint: median survival time, dose: 400.0 mg/kg/injection, schedule: Q01DX011 (ip), vehicle: water, higher T/C = longer survival) 0 of 10. Moreover, where the note is “T/C endpoint: median survival time, dose: 400.0 mg/kg/injection, schedule: Q01DX012 (ip), vehicle: water, higher T/C = longer survival”, the survivor count is 0 of 10.
